Measurements published in US20080152653A1.
These are yes or no findings as the source states them, for the method shown. A result given as binding can be weak or reduced; the word gives no strength.

Molecular target: mouse α9 integrin (mouse)
Test: cell adhesion screening of transfected cells

binding: binds
B1: SVVYGLR peptide of human OPN (peptide)
peptide: SVVYGLR
